## Primary screen of a compound library

Chains of the proteins cited; added tags and fusions are not shown. Residues count along the entry.
UniProt Q4DA54, 1-478: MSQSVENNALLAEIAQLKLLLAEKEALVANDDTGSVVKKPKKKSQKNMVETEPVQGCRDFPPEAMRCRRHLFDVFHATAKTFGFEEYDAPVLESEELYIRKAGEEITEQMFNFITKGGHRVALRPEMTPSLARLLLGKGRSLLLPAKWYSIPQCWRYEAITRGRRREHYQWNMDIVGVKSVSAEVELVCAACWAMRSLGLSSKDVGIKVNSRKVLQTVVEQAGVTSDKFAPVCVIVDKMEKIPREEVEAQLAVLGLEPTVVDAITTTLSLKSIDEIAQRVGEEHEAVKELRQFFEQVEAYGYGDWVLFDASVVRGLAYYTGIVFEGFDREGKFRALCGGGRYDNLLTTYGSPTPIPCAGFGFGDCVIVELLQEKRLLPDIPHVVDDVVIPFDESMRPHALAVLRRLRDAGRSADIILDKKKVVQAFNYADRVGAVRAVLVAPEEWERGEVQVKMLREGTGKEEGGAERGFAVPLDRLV
UniProt Q8IDJ8, 1-583: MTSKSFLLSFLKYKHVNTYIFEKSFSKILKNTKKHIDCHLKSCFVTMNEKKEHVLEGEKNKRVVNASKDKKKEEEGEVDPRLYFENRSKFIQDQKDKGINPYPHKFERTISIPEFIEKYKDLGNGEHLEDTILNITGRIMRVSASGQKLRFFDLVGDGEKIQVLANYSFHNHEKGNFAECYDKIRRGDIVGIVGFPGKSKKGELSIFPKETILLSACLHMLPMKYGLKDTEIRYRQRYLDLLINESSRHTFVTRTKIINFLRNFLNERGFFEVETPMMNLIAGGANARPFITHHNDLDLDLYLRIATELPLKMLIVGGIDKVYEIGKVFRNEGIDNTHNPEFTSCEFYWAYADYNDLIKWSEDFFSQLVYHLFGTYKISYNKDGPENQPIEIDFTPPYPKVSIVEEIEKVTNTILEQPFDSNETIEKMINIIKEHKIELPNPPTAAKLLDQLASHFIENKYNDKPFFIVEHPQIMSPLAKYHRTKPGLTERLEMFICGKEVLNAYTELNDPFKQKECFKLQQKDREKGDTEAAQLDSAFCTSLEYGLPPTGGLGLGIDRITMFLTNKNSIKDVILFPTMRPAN

The values are deposited in ChEMBL (CHEMBL3988442, “University of Dundee, Small-Polar-MMV Screening Library” (2021)).

Each number is a percent effect as filed.
How 0% and 100% were set is not recorded. Most values in the screen are low, and negative values occur.
The compounds are a random part of those screened.

TcHisRS: 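Histidine-tRNA ligase, Trypanosoma cruzi CL Brener (UniProt Q4DA54). Enzyme assay of histidyl-tRNA synthetase; the read-out is not stated. Compounds at 30 µM. Higher reads as stronger inhibition (inferred: compounds with an IC50 in retests scored well above the rest). Size under these conditions: about 69,000 compounds, about 31 of them at 50% or above in at least one test.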
PfKRS1: 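Lysine-tRNA ligase, Plasmodium falciparum 3D7 (UniProt Q8IDJ8). Enzyme assay of the cytosolic lysyl-tRNA synthetase in 384-well plates, read by luminescence. Compounds at 30 µM. Higher reads as stronger inhibition, judged from the few compounds that gave an IC50. Size under these conditions: about 69,000 compounds, about 49 of them at 50% or above in at least one test.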

| compound | TcHisRS | PfKRS1 |
|---|---|---|
| `Cc1ccc(C)c(-n2cc(CN3CCOCC3)c(-c3ccccc3)n2)c1` | 8.671 | 3.85 |
| `Cc1cc(-c2ccc(=O)n(CCNC(=O)C3CC3)n2)c(C)o1` | 4.857 | 1.304 |
| `CC1(C)CNC(=O)c2nc(-c3nnc(-c4ccccc4)[nH]3)[nH]c2C1` | 9.278 | 2.888 |
| `CC(=O)N1CCc2[nH]nc(C(=O)N3CCOCC3)c2C1` | 0.9709 | 2.914 |
| `CS(=O)(=O)c1nccn1Cc1ccc(C(N)=O)cc1` | 4.938 | 0.7513 |
| `CCc1ccc(NC(=O)N2C[C@H]3C[C@H](C(=O)NC(C)C)[C@@H](C2)O3)cc1` | 0.5587 | 1.294 |
| `CNC(=O)[C@@H]1C[C@H](N)CN1S(=O)(=O)c1cc(Cl)c(Cl)s1` | -0.5236 | 5.638 |
| `Cn1ncc2c(N3CC(N4CCCCC4)C3)nc(-c3ccncc3)nc21` | 0 | -2.486 |
| `CC(C)N(C(=O)Cn1c(-c2ccco2)cc2cccnc21)C(C)C` | 3.714 | 1.142 |
| `Cc1cccc(CN2CCc3onc(CN(C)C)c3C2)n1` | 8.889 | 2.332 |
| `CCOc1cccc2c1OCC(=O)N(c1ccc(N(C)C)cc1)C2` | 25 | 0.5256 |
| `O=C(O)[C@@H]1CN(C(=O)CCCc2ccc(F)cc2)C[C@H]1C1CC1` | 2.4 | 2.981 |
| `O=C1NCCCc2[nH]c(-c3nc(C4CC4)no3)nc21` | 2.469 | 1.729 |
| `COc1ccccc1-c1ncc(CN2CCC3(CCN(C)C3)CC2)cn1` | 18.23 | -0.07747 |
| `c1cnc(N2CCO[C@H]3CN(CC4CCOC4)C[C@H]32)cn1` (stereo not given in full) | 6.63 | 5.18 |
| `COCCN1CCCc2sc(C(=O)Nc3ccc(C)nc3)nc21` | 9.195 | 7.234 |
| `CC(=O)N1CCCN(C(=O)NCCCN(C)S(C)(=O)=O)CC1` | 11.11 | -0.01147 |
| `Cn1ccc(C(=O)N2CCC3(CCN3c3ncccn3)C2)n1` (stereo not given) | 11.11 | 1.912 |
| `COc1ccc(-c2ccc(C(=O)N3CCOCC3CC(N)=O)o2)cc1` (stereo not given) | -1.288 | 3.465 |
| `CCn1cnnc1CNC(=O)N1CCC(O)CC1` | 2.254 | 3.33 |
| `Cc1nn(-c2ccccc2)c(C)c1CNC1CCc2ncnn2C1` (stereo not given) | -1.527 | 5.087 |
| `CCOc1c(Cl)cc(Cl)cc1CNCCCn1ccnc1` | 5.682 | 5.003 |
| `O=C(O)c1cc(S(=O)(=O)Nc2ccc(Cl)cc2)cc2c1OCCO2` | 0.3759 | 8.347 |
| `COc1ccc(CC(=O)NC2(C)CCS(=O)(=O)C2)cc1F` (stereo not given) | -1.132 | 3.051 |
| `CCCc1cc(C(=O)N2CCCN(c3cccnn3)CC2)[nH]n1` | 11.39 | 3.611 |
| `O=S(=O)(c1ccccc1F)N1CCCC(c2nccs2)C1` (stereo not given) | 2.985 | 1.544 |
| `CC(C)(C)CCN1CCN(c2snc(Cl)c2C#N)CC1` | 2.439 | 7.929 |
| `Cc1noc(CNc2cc3c(cc2Cl)OCCCO3)n1` | 6.548 | 5.611 |
| `Cc1c(C(=O)NC(C)C(C)C)nnn1-c1cccc2c1CCN(C)C2` (stereo not given) | 0 | 5.769 |
| `O=C(O)CCc1cc2n(n1)CCN(Cc1cnc(N3CCCC3)nc1)C2` | 5.528 | -0.1348 |
| `CC(=O)N1CCC(N2CCOC[C@H]2c2nc(-c3ccccc3)c[nH]2)CC1` | 6.522 | 7.213 |
| `CS(=O)(=O)N1CC[C@@H]2O[C@@H](COCC(=O)N3CCCC3)CC[C@@H]21` | -10.53 | -5.749 |
| `O=C(NCc1nc(-c2ncccn2)no1)c1ccc(C2CCCO2)s1` (stereo not given) | -1.087 | -3.712 |
| `O=C1[C@H]2CN(S(=O)(=O)C3CC3)C[C@H]2CN1Cc1cccnc1` | 6 | 5.545 |
| `CNS(=O)(=O)CC(=O)NC(c1cc(C)sc1C)C(C)C` (stereo not given) | 1.327 | 2.581 |
| `O=C(c1c[nH]c(=O)[nH]1)N1CCCC2(CCC(=O)N(C3CCCC3)C2)C1` (stereo not given) | -13.27 | -0.0232 |
| `COc1cc(NC(=O)NCC2CCCO2)cc(OC)c1` (stereo not given) | 1.754 | -2.813 |
| `CCO[C@H]1CO[C@@]2(CCN(Cc3ccc4c(c3)OCO4)C2)C1` | -15.53 | 0.3449 |
| `CCn1ccc2ccnc(CC3CN(C(=O)c4ccc(F)cc4)C3)c21` | 13.91 | 0.3966 |
| `CCS(=O)(=O)c1ccc(N2CCC(NC(=O)CC3CCCC3)CC2)cc1` | 3.061 | 8.04 |
| `O=C(N1CCCC1)N1CCC2(CC1)C(=O)N(CC1CC1)c1ccccc12` | 5.825 | 1.495 |
| `CCN(CC)C1CCN(C(=O)NCc2cccc(-n3ccnc3)c2)C1` (stereo not given) | 4.867 | 3.47 |
| `Fc1cnc(N2C[C@H]3CCC[C@@]3(COc3ccccn3)C2)nc1` | 0.5464 | 8.385 |
| `O=C(Cc1ccc(O)c(Cl)c1)N1CCN(CC2CC2)[C@@H]2CS(=O)(=O)C[C@@H]21` | 7.317 | 0.5746 |
| `CC(=O)Nc1nc(C(=O)Nc2ccc(N3CCCCC3)nc2)cs1` | 12.41 | 2.589 |
| `COCCN(CCOC)C(=O)c1sc(C)nc1C` | 0 | 4.575 |
| `CCN(CC)C(=O)CN(C)C(=O)c1cc(-c2cccc(Cl)c2)no1` | 0 | 1.967 |
| `CCc1ccc(S(=O)(=O)Nc2ccncc2)s1` | 9.278 | 2.355 |
| `Cc1cccc(-c2nc(CNC3CCc4ncnn4C3)no2)c1` (stereo not given) | 9.249 | -1.155 |
| `O=C(NCCn1ccnc1)C1(c2ccc3c(c2)OCCO3)CCCC1` | 10.34 | 9.112 |
| `CCc1nc(CN2CCOC(Cn3nc(C)nc3C)C2)no1` (stereo not given) | 5.303 | 7.181 |
| `CCOc1ccccc1CN(CC)Cc1ccc(S(=O)(=O)NC)cc1` | 2.128 | 4.477 |
| `CCN1CCn2c(C)cnc2C12CCN(C(=O)Cc1ccccc1)CC2` | 3.365 | 3.708 |
| `O=C(C1CCCC1)N1C[C@@H](c2ccsc2)[C@@H]2CN(C3CCCC3)CC[C@@H]21` | 41.73 | 1.281 |
| `Fc1ccc(-c2noc([C@@H]3Cc4nc[nH]c4CN3)n2)cc1` | 9.901 | 0.2568 |
| `COc1ccccc1C(=O)N1CC(=O)N(C2CCCCC2)CC(O)C1` (stereo not given) | 2.247 | 6.388 |
| `CS(=O)(=O)N1C[C@@H](Oc2ccccn2)[C@H]2OCCC[C@H]21` | 3.226 | -0.3586 |
| `CC(C)Oc1ncc(C(=O)N2CCc3ccc(O)cc3C2)cc1Cl` | 0.6024 | 0.5343 |
| `Cc1ccc2oc(CNC(C)c3nnc4n3CCCC4)cc2c1` (stereo not given) | 14.44 | -7.864 |

For reference, 7 entries once more:

compound	TcHisRS	PfKRS1
CS(=O)(=O)N1C[C@@H](Oc2ccccn2)[C@H]2OCCC[C@H]21	3.226	-0.3586
COc1ccc(CC(=O)NC2(C)CCS(=O)(=O)C2)cc1F (stereo not given)	-1.132	3.051
O=C(NCCn1ccnc1)C1(c2ccc3c(c2)OCCO3)CCCC1	10.34	9.112
O=S(=O)(c1ccccc1F)N1CCCC(c2nccs2)C1 (stereo not given)	2.985	1.544
CCN(CC)C(=O)CN(C)C(=O)c1cc(-c2cccc(Cl)c2)no1	0	1.967
O=C(C1CCCC1)N1C[C@@H](c2ccsc2)[C@@H]2CN(C3CCCC3)CC[C@@H]21	41.73	1.281
Fc1ccc(-c2noc([C@@H]3Cc4nc[nH]c4CN3)n2)cc1	9.901	0.2568